# From US20240279202A1 (NURIX THERAPEUTICS, INC., priority 2021, published 2024)
# Some results were stated once for a whole list of compounds, not compound by compound.
# Biological target: T1, ITK (Homo sapiens, UniProt Q08881)
# T1 sequence (Q08881 1-620): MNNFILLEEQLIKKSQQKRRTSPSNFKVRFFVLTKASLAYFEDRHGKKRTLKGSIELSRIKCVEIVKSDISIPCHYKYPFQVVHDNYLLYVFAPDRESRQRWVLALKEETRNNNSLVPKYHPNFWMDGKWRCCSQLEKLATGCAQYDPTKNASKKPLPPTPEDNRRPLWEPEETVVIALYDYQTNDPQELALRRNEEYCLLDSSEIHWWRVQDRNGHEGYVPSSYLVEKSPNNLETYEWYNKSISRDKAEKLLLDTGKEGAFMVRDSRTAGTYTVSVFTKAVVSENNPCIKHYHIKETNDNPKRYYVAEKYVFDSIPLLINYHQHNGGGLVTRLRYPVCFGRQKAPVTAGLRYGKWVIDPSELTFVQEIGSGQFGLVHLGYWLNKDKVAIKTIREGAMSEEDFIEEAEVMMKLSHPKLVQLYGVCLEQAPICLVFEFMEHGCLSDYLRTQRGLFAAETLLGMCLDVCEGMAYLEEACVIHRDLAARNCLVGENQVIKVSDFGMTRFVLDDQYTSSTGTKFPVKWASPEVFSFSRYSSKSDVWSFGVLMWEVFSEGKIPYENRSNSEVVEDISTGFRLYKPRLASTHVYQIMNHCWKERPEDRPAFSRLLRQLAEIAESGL
# Test: ITK degradation HiBiT assay
# Type: cell-based
# Parameters: expressed in transfected cells; host or cells: Molt4 (ATCC CRL-1552), monoclonal clone 1C10, engineered to carry the HiBiT tag
# Details: FIG. 1; in vitro, assay format not given
# Procedure: Itk Degradation Hibit Assay
# Compounds provided herein were assayed in vitro with ITK HiBit cell lines. Compound dilution series (11-point, 5 fold dilutions in DMSO, columns 2-12 with replicate in rows A/B, C/D, E/F, G,H at 2000× the final required concentrations were prepared in 96 well plates (Falcon, cat. no. 353077). Column 1, rows A-H were control DMSO. The 2000× solutions ranged from 2 mM to 1.024 nM (final assay concentration range 1 μM to […]). The 2000× solutions were added to cells in […], for a final DMSO concentration of 0.5% and final assay compound concentration of 1×. For the cells, C-terminal HiBiT-tagged Molt4 cells (ATCC CRL-1552, monoclonal cell line clone 1C10) were plated at 1×10^6 cells/mL, 100 μL/well ([…]) in complete RPMI (10% FBS, 1% L-glutamine). […]
# Following incubation, 100 μL of complete Nano-Glo HiBiT Lytic Detection Reagent (Nano-Glo HiBiT Lytic Buffer with 1:50 Nano-Glo HiBiT Lytic Substrate and 1:100 LgBiT Protein; Promega cat. no. N3040) was added. […] Luminescence units (LU) were read on an EnVision plate reader (Perkin Elmer, 0.1 sec per well). Percent ITK remaining per sample was calculated as follows: […]
# Using Graphpad Prism, % ITK remaining values were plotted as a function of compound concentration. […] ITK was measured with antibody-based MSD (Meso-Scale Discovery) assays shown below.
smiles,measurement,value
"C[C@@H](C(=O)N(C)c1ccc2cc(-c3n[nH]c4c3C[C@@H]3C(F)(F)[C@]3(C)C4)[nH]c2c1)N1CCN(CC2CCN(c3ccc(C4CCC(=O)NC4=O)cn3)CC2)CC1 (stereo partly drawn) [Compound 17, (2S)—N-(2-((4aS,5aR)-5,5-difluoro-5a-methyl-1,4,4a,5,5a,6-hexahydrocyclopropa[f]indazol-3-yl)-1H-indol-6-yl)-2-(4-((1-(5-(2,6-dioxopiperidin-3-yl)pyridin-2-yl)piperidin-4-yl)methyl)piperazin-1-yl)-N-methylpropanamide]",DC50,< 10 nM
